Binding data for one substance are collected here from paper PMC11425283.

Protein sequences, listed by entry. Tags and fused reporters are not part of them. Lines headed by an entry give the natural chain unless they say otherwise; changes in a name come on top.
UniProt P09958: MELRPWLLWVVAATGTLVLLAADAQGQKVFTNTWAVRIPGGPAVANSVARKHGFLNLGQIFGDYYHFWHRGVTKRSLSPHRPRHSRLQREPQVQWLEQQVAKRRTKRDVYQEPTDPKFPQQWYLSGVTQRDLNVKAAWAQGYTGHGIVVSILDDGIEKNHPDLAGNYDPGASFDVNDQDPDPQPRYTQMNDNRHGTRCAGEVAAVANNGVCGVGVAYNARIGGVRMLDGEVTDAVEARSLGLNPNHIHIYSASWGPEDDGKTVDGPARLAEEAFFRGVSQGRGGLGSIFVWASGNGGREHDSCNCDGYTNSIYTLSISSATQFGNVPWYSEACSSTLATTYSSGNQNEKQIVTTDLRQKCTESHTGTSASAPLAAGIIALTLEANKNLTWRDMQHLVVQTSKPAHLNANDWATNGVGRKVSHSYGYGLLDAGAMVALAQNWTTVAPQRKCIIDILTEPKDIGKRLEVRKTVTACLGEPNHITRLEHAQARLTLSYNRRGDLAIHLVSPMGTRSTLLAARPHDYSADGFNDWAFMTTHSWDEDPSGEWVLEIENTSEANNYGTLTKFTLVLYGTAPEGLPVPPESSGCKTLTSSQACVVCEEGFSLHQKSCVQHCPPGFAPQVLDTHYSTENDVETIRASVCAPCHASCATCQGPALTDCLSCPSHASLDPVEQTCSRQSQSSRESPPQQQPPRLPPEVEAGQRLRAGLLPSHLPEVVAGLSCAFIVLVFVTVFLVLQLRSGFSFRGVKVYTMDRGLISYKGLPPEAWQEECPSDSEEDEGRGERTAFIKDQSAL

Assay [1] concerns the target USP32-3×Myc (human) (UniProt Q8NFA0). As to the kind of experiment: co-IP; Myc-tagged USP32 co-expressed with FLAG-tagged furin in HEK293T; IP with anti-Myc; WB.
Assay [2] has as its target T1, 3×HA-MARCHF8(M7R) (UniProt Q5T0T0).
T1 sequence: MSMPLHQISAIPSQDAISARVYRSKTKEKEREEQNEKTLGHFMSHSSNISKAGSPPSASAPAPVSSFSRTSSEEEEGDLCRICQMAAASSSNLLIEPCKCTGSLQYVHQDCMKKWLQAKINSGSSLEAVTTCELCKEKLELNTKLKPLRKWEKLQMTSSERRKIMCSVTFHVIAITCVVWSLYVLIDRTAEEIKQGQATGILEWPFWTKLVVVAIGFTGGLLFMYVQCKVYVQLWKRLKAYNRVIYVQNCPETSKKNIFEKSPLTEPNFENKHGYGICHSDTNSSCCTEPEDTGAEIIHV
The experiment in a line: co-IP; HA-tagged MARCHF or USP32 (WT or mutant) co-expressed with furin (WT or mutant) in HEK293T; RIPA lysate; IP with anti-HA affinity gel overnight at 4 °C; WB.

Assay [3] concerns the target T2, MARCHF2(M7R)-3×HA (UniProt Q9P0N8).
T2 sequence: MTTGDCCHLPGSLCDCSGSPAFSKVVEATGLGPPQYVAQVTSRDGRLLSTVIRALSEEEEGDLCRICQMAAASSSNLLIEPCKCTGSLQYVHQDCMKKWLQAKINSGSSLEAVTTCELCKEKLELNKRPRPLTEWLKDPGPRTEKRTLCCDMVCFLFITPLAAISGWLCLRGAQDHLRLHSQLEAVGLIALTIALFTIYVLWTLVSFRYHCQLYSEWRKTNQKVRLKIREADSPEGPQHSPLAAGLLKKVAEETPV
Described as above.

The target in assay [4] is T3, MARCHF9(M7R)-3×HA (UniProt Q86YJ5).
T3 sequence: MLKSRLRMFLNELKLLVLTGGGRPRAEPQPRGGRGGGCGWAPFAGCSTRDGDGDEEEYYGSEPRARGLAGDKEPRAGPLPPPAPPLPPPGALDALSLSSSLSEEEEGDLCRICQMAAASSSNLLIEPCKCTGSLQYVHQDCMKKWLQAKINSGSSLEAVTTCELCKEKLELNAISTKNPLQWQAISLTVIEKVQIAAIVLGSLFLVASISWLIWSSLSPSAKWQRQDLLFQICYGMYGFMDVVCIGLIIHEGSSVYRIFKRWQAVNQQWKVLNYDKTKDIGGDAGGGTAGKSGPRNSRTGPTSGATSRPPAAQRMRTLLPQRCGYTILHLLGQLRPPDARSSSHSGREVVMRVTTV
The assay is described as above.

The target in assay [5] is USP32 Mut-1 (∆1–299), 3×HA (human) (UniProt Q8NFA0). The description is as above.
Assay [6] concerns the target USP32 Mut-2 (∆369–589), 3×HA (human) (UniProt Q8NFA0). The assay is described as above.
Assay [7] concerns the target USP32 Mut-3 (∆1–585), 3×HA (human) (UniProt Q8NFA0). The assay is described as above.
Assay [8] has as its target T4, USP32 Mut-4 (∆585–1604), 3×HA (human) (UniProt Q8NFA0).
T4 sequence: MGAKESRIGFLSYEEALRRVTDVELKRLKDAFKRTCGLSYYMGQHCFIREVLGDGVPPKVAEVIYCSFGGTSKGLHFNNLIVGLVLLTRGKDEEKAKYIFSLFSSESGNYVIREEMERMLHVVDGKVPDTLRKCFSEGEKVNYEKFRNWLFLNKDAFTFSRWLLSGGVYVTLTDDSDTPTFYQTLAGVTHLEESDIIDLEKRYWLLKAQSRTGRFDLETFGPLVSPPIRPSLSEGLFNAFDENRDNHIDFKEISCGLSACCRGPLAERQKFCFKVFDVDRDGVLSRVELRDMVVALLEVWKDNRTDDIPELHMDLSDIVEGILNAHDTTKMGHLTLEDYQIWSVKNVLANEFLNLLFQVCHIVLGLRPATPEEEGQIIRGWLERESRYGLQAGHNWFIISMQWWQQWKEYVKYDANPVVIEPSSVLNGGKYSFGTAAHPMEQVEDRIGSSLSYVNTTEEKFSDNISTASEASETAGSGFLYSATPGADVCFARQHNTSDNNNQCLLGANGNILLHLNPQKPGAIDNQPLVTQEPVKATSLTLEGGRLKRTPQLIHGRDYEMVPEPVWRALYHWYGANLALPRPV
The description is as above.

Assay [9] has as its target T5, USP32 Mut-5 (∆734–1567), 3×HA (human) (UniProt Q8NFA0).
T5 sequence: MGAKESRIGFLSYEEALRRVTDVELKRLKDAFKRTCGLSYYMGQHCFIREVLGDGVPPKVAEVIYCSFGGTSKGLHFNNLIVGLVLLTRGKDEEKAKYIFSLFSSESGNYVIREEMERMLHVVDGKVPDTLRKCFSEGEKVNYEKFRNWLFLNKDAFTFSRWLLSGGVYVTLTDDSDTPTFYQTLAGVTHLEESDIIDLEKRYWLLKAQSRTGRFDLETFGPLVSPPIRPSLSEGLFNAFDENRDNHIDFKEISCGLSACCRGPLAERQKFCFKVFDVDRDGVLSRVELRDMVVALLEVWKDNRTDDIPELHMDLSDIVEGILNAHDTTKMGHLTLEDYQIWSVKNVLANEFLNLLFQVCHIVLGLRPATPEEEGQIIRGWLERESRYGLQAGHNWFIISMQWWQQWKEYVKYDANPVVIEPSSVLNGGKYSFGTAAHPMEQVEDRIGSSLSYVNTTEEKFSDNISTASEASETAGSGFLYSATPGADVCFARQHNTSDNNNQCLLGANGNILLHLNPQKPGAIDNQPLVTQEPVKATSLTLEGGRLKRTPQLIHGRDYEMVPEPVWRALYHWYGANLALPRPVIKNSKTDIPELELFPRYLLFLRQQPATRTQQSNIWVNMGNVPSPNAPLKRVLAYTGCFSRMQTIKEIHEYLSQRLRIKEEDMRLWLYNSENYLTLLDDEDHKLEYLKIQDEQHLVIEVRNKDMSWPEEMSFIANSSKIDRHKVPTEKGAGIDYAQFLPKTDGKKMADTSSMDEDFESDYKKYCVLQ
Described as above.

Assay [10] concerns the target USP32 Mut-6 (∆1568–1604), 3×HA (human) (UniProt Q8NFA0). The description is as above.
The target of assay [11] is USP32 with a 3×HA-tag (wild type) (human) (UniProt Q8NFA0). The description is as above.

These are yes or no findings as the source states them, for the method shown. Binding seen in cells or lysates may run through a third protein. For some assays here: Binding calls can cover weak binding; strength is not graded here. For some assays here: Tags and fused reporters may be left off the sequences shown.

“furin (FLAG-tagged, wild type) (from UniProt P09958) (enzyme)”: the binding result in assay [1] was “binds”; in assay [2], “no binding”; in assay [3], “no binding”; in assay [4] it was “no binding”; in [5], “binds”; in [6], “binds”. The binding entry in assay [7] was “binds”; in assay [8], “no binding”; in assay [9], “no binding”; in assay [10] it was “binds”; in assay [11], “binds”.
